In article PMC11342374 (2024):

Assay: general procedure: Fmoc solid-phase peptide synthesis; polystyrene-supported MBHA Fmoc-protected Rink amide resin (0.64 mmol/g loading, Protein Technologies); bromoacetic acid / DIC (submonomer method)
Settings: whole synthesis, HPLC-UV, ACQUITY UPLC protein BEH C4 column, scale of the general procedure 200 mg scale of the general procedure

Substance | purity (crude or final not stated) [%]
Aet-Dod-Dod-Dod-Dod | 87.12
Apd-Dec-Dec-Dec-Dec | 96.62
Apd-Dec-Dec-Ehx-Dec-Dec-Ehx | 99.64
Apd-Dec-Dod-Dec-Dec-Dod-Dec | 80.69
Apd-Dec-Ehx-Dec-Dec-Ehx-Dec | 91.31
Apd-Dod-Dec-Dod-Dec | 98.4
Apd-Dod-Dod-Dod-Dod | 96.89
Apd-Dod-Dod-Dod-Dod-Dod-Dod | 87.77
Apd-Dod-Dod-Ehx-Dod-Dod-Ehx | 94.48
Apd-Dod-Dod-Oct-Dod-Dod-Oct | 91.21
Apd-Dod-Ehx-Dod-Dod-Ehx-Dod | 90.41
Apd-Dod-Ehx-Dod-Ehx | 100
Apd-Dod-Ehx-Ehx-Dod-Ehx-Ehx | 97.52
Apd-Dod-Ole-Dod | 89.1
Apd-Ehx-Dec-Dec-Dec-Ehx-Dec-Dec-Dec | 91.07
Apd-Ehx-Dod-Dod-Hex-Ehx-Dod-Dod-Hex | 95.93
Apd-Ehx-Dod-Ehx-Ehx-Dod-Ehx | 93.88
Apd-Ehx-Dod-Hex-Hex-Ehx-Dod-Hex-Hex | 93.4
Apd-Ehx-Ehx-Ehx-Ehx | 100
Apd-Ehx-Ehx-Hex-Ehx-Ehx-Hex | 96.49
Apd-Ehx-Hex-Ehx-Hex-Ehx-Hex-Ehx-Hex | 93.19
Apd-Ehx-Oct-Oct-Oct-Ehx-Oct-Oct-Oct | 93.66
Apd-Hex-Dod-Ehx-Hex-Dod-Ehx | 94.12

Substance | purity (crude or final not stated) [%]
Apd-Hex-Hex-Hex-Hex-Hex-Hex-Hex-Hex | 92.22
Apd-Oct-Dec-Ehx-Oct-Dec-Ehx | 96.01
Apd-Oct-Dec-Hex-Oct-Dec-Hex | 60.41
Apd-Oct-Dod-Ehx-Oct-Dod-Ehx | 93.49
Apd-Oct-Hex-Hex-Hex-Hex-Hex-Hex-Oct | 92.79
Apd-Oct-Oct-Dec-Oct-Oct-Dec | 95.3
Apd-Oct-Oct-Hex-Oct-Oct-Hex | 85.35
Apd-Ole-Dec-Ole | 81.18
Apd-Ole-Dec-Ole-Dec | 63.81
Apd-Ole-Hex-Hex-Hex-Ole-Hex-Hex-Hex | 53.34
Apd-Ole-Oct-Ole | 68.5
Apd-Ole-Oct-Ole-Oct | 62.25
Apr-Dod-Dod-Dod-Dod | 82.98
Dea-Dod-Dod-Dod-Dod | 90.83
Dme-Dod-Dod-Dod-Dod | 81.18
Eae-Dod-Dod-Dod-Dod | 94.12
Mip-Dod-Dod-Dod-Dod | 87.94
Mop-Dod-Dod-Dod-Dod | 98.5
Nhe-Dod-Dod-Dod-Dod | 90.86
Nhp-Dod-Dod-Dod-Dod | 94.036
Nme-Dod-Dod-Dod-Dod | 87.24
Nmp-Dod-Dod-Dod-Dod | 99.09
